Data taken from patent publication US20110039693A1, “Pyrimidylmethyl Sulfonamide Compounds” (BASF SE, priority 2008, published 2011).
Some entries share one result that the patent states for a list of compounds. For at least one compound, name, drawing or mass did not settle the structure.

Assays:
Format in all cases: cell-based
Settings in all cases: 125 ppm; 7 days
[1] = system: Gaeumannomyces graminis; experiment: Microtiter test: activity against Gaeumannomyces graminis
[2] = system: Septoria glycines; experiment: Microtiter test: activity against Septoria glycines
[3] = system: Ustilago maydis; experiment: Microtiter test: activity against Ustilago maydis
[4] = system: Sclerotinia sclerotiorum; experiment: Microtiter test: activity against Sclerotinia sclerotiorum
[5] = system: Thielaviopsis basicola; experiment: Microtiter test: activity against Thielaviopsis basicola
[6] = system: Septoria tritici; experiment: Microtiter test: activity against leaf blotch pathogen Septoria tritici
[7] = system: Leptosphaeria nodorum; experiment: Microtiter test: activity against Leptosphaeria nodorum
[8] = system: Cercospora sojina; experiment: Microtiter test: activity against Cercospora sojina

## COc1nccc(CNS(=O)(=O)c2ccc(Oc3ccnc(C(F)(F)F)c3)c(C)c2)n1 [Example I-167]
[1]
  growth of the pathogen: at most 17%
[2]
  growth of the pathogen: at most 16%
[3]
  growth of the pathogen: at most 10%
[4]
  growth of the pathogen: at most 17%

## CCOc1nccc(CNS(=O)(=O)c2ccc(Oc3ncccc3C(F)(F)F)cc2)n1 [Example I-52]
[1]
  growth of the pathogen: at most 17%
[4]
  growth of the pathogen: at most 17%

## COc1nccc(CNS(=O)(=O)c2ccc(Oc3ccc(C(F)(F)F)cn3)c(F)c2)n1 [Example I-77]
[5]
  growth of the pathogen: at most 17%
[6]
  growth of the pathogen: at most 15%
[1]
  growth of the pathogen: at most 17%
[2]
  growth of the pathogen: at most 16%
[7]
  growth of the pathogen: at most 20%
[8]
  growth of the pathogen: at most 17%
[4]
  growth of the pathogen: at most 17%

## COc1nccc(CNS(=O)(=O)c2ccc(OCc3cncc(C(F)(F)F)c3)cc2)n1 [Example I-125]
[1]
  growth of the pathogen: at most 17%
[4]
  growth of the pathogen: at most 17%

## COc1cc(CNS(=O)(=O)c2ccc(Oc3ccc(C(F)(F)F)cn3)cc2)nc(OC)n1 [Example I-88]
[5]
  growth of the pathogen: at most 17%
[1]
  growth of the pathogen: at most 17%
[2]
  growth of the pathogen: at most 16%
[7]
  growth of the pathogen: at most 20%
[8]
  growth of the pathogen: at most 17%
[4]
  growth of the pathogen: at most 17%

## COc1nccc(CNS(=O)(=O)c2ccc(Nc3ncc(C(F)(F)F)cc3Cl)cc2)n1 [Example I-173]
[5]
  growth of the pathogen: at most 17%
[1]
  growth of the pathogen: at most 17%
[2]
  growth of the pathogen: at most 16%
[7]
  growth of the pathogen: at most 20%
[3]
  growth of the pathogen: at most 10%
[4]
  growth of the pathogen: at most 17%

## COc1cc(CNS(=O)(=O)c2ccc(Oc3ncc(C(F)(F)F)cc3Cl)cc2)nc(OC)n1 [Example I-118]
[4]
  growth of the pathogen: at most 17%

## COc1nccc(CNS(=O)(=O)c2ccc(Oc3nc(C(F)(F)F)nc(C)c3C)cc2)n1 [Example I-48]
[1]
  growth of the pathogen: at most 17%
[4]
  growth of the pathogen: at most 17%

## COc1nccc(CNS(=O)(=O)c2ccc(Oc3ccc(C(F)(F)F)cn3)c(Cl)c2)n1 [Example I-76]
[2]
  growth of the pathogen: at most 16%

## COc1nccc(CNS(=O)(=O)c2ccc(OCc3nc4ccccc4s3)cc2)n1 [Example I-149]
[4]
  growth of the pathogen: at most 17%

## COc1nccc(CNS(=O)(=O)c2ccc(Oc3ccc(C(F)(F)F)cn3)cc2C)n1 [Example I-22]
[5]
  growth of the pathogen: at most 17%
[6]
  growth of the pathogen: at most 15%
[1]
  growth of the pathogen: at most 17%
[7]
  growth of the pathogen: at most 20%
[3]
  growth of the pathogen: at most 10%

## COc1nccc(CNS(=O)(=O)c2ccc(Oc3ccc(N(C)C)nc3)cc2)n1 [Example I-172]
[5]
  growth of the pathogen: at most 17%
[4]
  growth of the pathogen: at most 17%

## COc1nccc(CNS(=O)(=O)c2ccc(OCc3ncccn3)cc2)n1 [Example I-161]
[1]
  growth of the pathogen: at most 17%
[2]
  growth of the pathogen: at most 16%
[4]
  growth of the pathogen: at most 17%

## CCc1cc(COc2ccc(S(=O)(=O)NCc3ccnc(OC)n3)cc2)on1 [Example I-112]
[5]
  growth of the pathogen: at most 17%
[1]
  growth of the pathogen: at most 17%
[2]
  growth of the pathogen: at most 16%
[4]
  growth of the pathogen: at most 17%

## COc1nccc(CNS(=O)(=O)c2ccc(Oc3ccncc3Cl)cc2)n1 [Example I-134]
[5]
  growth of the pathogen: at most 17%
[2]
  growth of the pathogen: at most 16%
[7]
  growth of the pathogen: at most 20%
[3]
  growth of the pathogen: at most 10%
[4]
  growth of the pathogen: at most 17%

## O=S(=O)(NCc1ccncn1)c1ccc(S(=O)(=O)c2ncc(C(F)(F)F)cc2Cl)cc1 [Example I-159]
[5]
  growth of the pathogen: at most 17%
[1]
  growth of the pathogen: at most 17%
[2]
  growth of the pathogen: at most 16%
[4]
  growth of the pathogen: at most 17%

## COc1cc(OC)nc(Oc2ccc(S(=O)(=O)NCc3ccnc(OC)n3)cc2)n1 [Example I-155]
[5]
  growth of the pathogen: at most 17%

## COc1nccc(CNS(=O)(=O)c2ccc(Oc3ncc(C(F)(F)F)cc3Cl)c(C)c2C)n1 [Example I-83]
[5]
  growth of the pathogen: at most 17%
[6]
  growth of the pathogen: at most 15%
[1]
  growth of the pathogen: at most 17%
[2]
  growth of the pathogen: at most 16%
[4]
  growth of the pathogen: at most 17%

## COc1nccc(CNS(=O)(=O)c2ccc(Oc3ccc(C(F)(F)F)nn3)cc2)n1 [Example I-110]
[1]
  growth of the pathogen: at most 17%
[4]
  growth of the pathogen: at most 17%

## CSc1ncc(F)c(CNS(=O)(=O)c2ccc(Oc3ccc(C(F)(F)F)cn3)cc2)n1 [Example I-72]
[6]
  growth of the pathogen: at most 15%
[1]
  growth of the pathogen: at most 17%
[7]
  growth of the pathogen: at most 20%
[4]
  growth of the pathogen: at most 17%
